Assay results as given in the supplement of paper PMC10849652.
The other results are listed elsewhere or left out. Residues, ends and D or L forms follow the SMILES beside them. *: point of attachment. Cbz = O=C(OCc1ccccc1)*

The chains behind the UniProt entries cited, without tags or fusion partners. Where a name states a change or a piece, a line headed by the entry shows the natural chain unless it says otherwise.
UniProt O43674, whole entry, looked up: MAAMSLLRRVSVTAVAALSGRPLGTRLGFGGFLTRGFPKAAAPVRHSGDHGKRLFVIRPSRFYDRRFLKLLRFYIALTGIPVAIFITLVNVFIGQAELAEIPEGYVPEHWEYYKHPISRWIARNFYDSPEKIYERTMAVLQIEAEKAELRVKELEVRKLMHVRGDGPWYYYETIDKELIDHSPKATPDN
UniProt Q09161: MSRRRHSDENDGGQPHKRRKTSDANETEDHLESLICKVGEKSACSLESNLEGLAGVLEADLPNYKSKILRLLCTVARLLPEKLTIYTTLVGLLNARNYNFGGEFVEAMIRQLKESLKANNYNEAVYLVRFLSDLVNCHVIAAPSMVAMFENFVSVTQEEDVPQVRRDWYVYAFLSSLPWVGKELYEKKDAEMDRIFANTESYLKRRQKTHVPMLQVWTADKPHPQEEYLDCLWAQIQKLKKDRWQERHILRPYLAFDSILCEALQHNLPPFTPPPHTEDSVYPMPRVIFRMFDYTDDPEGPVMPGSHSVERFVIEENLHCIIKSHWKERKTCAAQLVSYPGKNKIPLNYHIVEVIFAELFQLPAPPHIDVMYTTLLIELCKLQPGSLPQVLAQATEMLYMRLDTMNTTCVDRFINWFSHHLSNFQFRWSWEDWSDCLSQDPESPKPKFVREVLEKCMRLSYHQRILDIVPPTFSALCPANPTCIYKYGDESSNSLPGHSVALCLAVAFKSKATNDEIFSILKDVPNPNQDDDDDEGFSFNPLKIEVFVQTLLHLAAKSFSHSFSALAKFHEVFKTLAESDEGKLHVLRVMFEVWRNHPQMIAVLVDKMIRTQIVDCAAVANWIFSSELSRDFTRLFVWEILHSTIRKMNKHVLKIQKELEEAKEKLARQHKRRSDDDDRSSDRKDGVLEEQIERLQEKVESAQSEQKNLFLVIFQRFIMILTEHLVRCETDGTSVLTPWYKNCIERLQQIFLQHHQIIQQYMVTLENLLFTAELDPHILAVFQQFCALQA
UniProt Q8N183: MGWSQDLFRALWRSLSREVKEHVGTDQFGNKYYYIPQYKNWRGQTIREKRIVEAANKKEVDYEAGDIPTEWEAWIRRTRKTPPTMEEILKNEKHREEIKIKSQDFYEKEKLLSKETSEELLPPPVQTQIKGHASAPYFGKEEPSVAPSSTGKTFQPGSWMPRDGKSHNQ
UniProt E9PAV3, whole entry, looked up: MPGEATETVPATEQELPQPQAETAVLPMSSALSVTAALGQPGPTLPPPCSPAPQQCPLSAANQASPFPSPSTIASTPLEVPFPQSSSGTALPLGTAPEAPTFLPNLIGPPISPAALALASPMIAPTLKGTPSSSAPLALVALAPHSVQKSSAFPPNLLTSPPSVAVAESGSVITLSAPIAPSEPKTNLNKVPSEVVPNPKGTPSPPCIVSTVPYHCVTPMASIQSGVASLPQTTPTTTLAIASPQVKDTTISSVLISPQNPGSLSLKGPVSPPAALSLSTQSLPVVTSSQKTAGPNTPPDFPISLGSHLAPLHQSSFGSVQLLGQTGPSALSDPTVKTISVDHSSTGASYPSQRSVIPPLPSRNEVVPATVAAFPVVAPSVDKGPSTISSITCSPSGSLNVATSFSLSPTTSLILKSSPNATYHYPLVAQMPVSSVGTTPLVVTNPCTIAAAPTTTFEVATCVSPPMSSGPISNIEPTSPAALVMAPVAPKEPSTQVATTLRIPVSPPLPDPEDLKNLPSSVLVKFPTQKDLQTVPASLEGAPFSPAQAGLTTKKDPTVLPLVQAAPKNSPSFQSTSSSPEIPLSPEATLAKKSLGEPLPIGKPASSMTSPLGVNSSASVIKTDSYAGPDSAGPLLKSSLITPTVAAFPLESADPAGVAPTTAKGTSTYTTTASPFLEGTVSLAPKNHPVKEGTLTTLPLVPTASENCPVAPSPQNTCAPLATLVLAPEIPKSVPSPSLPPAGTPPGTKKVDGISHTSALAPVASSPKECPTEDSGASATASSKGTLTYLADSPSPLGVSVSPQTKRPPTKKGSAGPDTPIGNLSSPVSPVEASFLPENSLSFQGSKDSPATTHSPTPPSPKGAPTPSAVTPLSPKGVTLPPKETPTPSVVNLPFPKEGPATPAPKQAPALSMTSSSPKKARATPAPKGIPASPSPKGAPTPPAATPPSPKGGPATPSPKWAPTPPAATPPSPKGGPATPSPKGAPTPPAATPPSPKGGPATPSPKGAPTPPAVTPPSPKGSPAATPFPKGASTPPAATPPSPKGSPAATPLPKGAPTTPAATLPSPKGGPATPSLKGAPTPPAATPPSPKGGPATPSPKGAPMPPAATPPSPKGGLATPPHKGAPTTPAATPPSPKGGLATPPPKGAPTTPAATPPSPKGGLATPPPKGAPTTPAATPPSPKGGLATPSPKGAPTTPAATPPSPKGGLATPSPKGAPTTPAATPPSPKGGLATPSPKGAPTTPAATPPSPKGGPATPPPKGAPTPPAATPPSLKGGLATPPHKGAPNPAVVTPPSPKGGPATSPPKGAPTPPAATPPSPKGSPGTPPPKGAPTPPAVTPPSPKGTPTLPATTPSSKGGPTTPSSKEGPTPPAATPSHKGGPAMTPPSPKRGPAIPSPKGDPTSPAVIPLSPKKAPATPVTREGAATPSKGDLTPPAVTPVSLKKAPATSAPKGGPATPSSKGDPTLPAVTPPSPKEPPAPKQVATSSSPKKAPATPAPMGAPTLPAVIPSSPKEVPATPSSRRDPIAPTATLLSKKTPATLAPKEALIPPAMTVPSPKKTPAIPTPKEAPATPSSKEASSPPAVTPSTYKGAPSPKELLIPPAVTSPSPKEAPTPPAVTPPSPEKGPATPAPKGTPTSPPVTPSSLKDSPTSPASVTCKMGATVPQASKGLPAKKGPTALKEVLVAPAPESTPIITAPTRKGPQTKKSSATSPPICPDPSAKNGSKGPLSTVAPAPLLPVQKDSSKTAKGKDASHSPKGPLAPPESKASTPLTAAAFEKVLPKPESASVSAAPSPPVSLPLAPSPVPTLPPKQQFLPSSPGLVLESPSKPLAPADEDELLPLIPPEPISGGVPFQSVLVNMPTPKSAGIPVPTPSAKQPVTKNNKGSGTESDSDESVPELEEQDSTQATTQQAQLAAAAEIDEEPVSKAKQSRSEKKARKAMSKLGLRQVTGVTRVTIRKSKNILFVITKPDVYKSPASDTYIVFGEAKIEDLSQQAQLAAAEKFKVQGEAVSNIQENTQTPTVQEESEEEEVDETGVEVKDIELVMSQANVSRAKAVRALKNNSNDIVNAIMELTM
UniProt P12036: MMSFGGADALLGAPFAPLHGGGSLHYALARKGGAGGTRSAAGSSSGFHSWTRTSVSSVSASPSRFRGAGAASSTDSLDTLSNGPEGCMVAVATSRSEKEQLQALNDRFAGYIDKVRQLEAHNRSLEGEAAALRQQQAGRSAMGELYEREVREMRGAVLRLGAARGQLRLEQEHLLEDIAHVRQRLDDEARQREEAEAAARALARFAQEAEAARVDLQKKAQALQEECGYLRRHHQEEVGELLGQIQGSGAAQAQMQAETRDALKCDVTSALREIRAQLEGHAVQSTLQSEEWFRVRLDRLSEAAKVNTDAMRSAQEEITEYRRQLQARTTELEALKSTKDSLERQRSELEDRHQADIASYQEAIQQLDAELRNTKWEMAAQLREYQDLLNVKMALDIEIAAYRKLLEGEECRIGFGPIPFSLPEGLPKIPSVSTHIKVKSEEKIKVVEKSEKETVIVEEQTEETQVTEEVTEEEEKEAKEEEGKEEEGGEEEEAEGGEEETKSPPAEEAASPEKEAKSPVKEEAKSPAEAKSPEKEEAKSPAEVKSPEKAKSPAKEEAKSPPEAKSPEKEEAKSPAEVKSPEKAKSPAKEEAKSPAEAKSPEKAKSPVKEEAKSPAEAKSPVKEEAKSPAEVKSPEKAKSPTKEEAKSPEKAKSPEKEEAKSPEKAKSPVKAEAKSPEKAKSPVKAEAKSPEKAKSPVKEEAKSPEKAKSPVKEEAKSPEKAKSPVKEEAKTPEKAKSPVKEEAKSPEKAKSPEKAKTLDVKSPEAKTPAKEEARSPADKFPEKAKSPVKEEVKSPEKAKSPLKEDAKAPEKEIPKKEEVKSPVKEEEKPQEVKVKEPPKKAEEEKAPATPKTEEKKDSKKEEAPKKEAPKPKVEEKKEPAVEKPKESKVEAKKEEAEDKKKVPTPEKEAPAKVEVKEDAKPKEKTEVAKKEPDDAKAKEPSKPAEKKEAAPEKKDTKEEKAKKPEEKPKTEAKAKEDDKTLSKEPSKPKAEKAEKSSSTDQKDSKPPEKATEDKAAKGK
UniProt Q9UHB4: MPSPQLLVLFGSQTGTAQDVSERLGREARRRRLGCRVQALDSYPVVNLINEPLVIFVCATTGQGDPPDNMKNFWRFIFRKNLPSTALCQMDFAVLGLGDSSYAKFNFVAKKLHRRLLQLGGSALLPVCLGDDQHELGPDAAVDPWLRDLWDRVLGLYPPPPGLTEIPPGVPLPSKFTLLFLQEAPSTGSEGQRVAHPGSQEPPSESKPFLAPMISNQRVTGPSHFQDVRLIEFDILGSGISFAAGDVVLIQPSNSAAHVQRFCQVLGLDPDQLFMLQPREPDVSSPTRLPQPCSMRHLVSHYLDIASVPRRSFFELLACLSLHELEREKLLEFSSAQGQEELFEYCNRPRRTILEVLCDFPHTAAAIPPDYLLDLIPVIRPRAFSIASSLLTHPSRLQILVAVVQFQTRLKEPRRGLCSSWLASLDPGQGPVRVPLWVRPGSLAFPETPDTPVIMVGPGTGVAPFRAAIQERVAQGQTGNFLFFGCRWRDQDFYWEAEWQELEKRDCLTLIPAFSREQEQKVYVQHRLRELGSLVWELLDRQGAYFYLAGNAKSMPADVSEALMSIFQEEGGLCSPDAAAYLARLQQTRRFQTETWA
UniProt P19404, whole entry, looked up: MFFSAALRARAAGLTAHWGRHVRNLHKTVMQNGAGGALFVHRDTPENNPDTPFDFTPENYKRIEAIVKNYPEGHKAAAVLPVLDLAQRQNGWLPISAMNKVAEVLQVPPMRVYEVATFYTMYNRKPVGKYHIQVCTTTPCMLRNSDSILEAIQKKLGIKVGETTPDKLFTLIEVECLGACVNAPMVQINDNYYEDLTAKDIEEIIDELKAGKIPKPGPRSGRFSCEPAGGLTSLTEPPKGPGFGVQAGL
UniProt Q9BXJ9: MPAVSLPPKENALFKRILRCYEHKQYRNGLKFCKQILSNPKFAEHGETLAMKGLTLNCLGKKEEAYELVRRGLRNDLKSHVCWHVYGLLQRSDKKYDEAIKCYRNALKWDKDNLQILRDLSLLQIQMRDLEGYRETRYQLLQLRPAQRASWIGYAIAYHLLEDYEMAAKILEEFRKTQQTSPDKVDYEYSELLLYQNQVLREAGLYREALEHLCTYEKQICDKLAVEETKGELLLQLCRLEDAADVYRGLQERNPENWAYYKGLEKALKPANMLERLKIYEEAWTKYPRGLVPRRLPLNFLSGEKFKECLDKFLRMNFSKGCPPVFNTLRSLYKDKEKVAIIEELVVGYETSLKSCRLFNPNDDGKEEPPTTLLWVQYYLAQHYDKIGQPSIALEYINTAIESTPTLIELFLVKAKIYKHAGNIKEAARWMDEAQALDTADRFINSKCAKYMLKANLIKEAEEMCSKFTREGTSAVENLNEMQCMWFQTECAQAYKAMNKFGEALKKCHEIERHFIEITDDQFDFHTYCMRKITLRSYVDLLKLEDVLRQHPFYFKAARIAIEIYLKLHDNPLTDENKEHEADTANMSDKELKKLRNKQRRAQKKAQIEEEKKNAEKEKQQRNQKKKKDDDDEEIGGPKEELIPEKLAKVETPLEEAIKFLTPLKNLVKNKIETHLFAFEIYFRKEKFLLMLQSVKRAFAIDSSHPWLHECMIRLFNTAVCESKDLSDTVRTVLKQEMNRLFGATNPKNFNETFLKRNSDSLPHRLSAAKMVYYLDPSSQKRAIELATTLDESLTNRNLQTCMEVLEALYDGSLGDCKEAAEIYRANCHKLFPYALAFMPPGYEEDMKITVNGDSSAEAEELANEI
UniProt Q9UJ70, whole entry, looked up: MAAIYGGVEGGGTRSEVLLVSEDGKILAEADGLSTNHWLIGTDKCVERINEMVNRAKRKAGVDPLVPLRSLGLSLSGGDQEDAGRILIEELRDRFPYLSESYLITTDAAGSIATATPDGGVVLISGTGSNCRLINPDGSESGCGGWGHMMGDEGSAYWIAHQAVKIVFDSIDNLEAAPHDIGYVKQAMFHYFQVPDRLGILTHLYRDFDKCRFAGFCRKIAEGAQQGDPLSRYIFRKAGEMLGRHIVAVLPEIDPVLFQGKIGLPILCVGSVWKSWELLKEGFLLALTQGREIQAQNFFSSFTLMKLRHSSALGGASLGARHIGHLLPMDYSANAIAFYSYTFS
UniProt P61599, whole entry, looked up: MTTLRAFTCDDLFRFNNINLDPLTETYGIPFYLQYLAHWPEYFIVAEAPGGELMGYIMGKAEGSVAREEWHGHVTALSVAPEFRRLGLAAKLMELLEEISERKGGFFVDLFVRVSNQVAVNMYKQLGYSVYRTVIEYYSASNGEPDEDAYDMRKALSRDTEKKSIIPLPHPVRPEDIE

Legend:
Experiment in all cases: log2 fold change, soluble protein after heating vs DMSO (PISA); higher = thermal stabilisation; K562 cells, 10 uM, 30 min; active = over 0.2 and 3.5 SD of the protein, either way, in both replicates (recomputed)
erlotinib = compound: C#Cc1cccc(Nc2ncnc3cc(OCCOC)c(OCCOC)cc23)c1 [erlotinib]
Outline: (§1)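 K562 cells at 2×10^6 cells/mL were exposed to 10 μM compound for 30 min, then aliquots were heated for 3 min across 48°C-58°C, pooled, and extracted in PBS containing 0.5% NP-40 at 4°C. The supernatant after 21,000xg for 90 min was taken as soluble protein and measured by TMTpro 16plex LC-MS/MS with channel sums equalised. Thermal stability is reported relative to control samples, with values from duplicates. Fold changes are given on a log2 scale.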

[1] = compound: C/C(=N\NC(=O)C1=CC(=CC=C1)S(=O)(=O)N2CCOCC2)/C3=C(C=CC(=C3)Cl)O
Outline: as §1

[2] = compound: C1=CC(=C(C=C1Cl)C2=NC3=NC=CN=C3C(=N2)NC4=CC=NC=C4)F
Outline: as §1

[3] = compound: C1=CC(=CC=C1C2=NC3=C(N2)C=C(C=C3)C(=O)N)OC4=CC=C(C=C4)Cl
Outline: as §1

[4] = compound: C1=CC2=C(C=CC(=C2)/C=C\3/C(=O)NC(=NCC4=CC=CS4)S3)N=C1
Outline: as §1

[5] = compound: C1=CC2=NC=CN=C2C=C1/C=C/3\C(=O)NC(=O)S3
Outline: as §1

[6] = compound: C1=CC=C(C=C1)C2=NC(=C(N2)C3=CC=NC=C3)C4=CC(=C(C=C4)Cl)O
Outline: as §1

[7] = compound: C1=CC=C2C(=C1)C3=NNC4=CC=CC(=C43)C2=O
Outline: as §1

[8] = compound: C1CCN(C1)C(=O)NC2=CC=CC(=C2)NC3=NC=C(C(=N3)NCCC4=CN=CN4)Br
Outline: as §1

[9] = compound: C1CN(CCC1(CC2=CC=C(C=C2)Cl)N)C3=NC=NC4=C3C=CN4
Outline: as §1

IRAK-1-4 Inhibitor I = compound: C1COCCN1CCN2C3=CC=CC=C3N=C2NC(=O)C4=CC(=CC=C4)[N+](=O)[O-] [IRAK-1-4 Inhibitor I]
Outline: as §1

ibrutinib = compound: C=CC(=O)N1CCC[C@@H](n2nc(-c3ccc(Oc4ccccc4)cc3)c3c(N)ncnc32)C1 [ibrutinib]
Outline: as §1

[10] = compound: CC(=O)c1cnc2ccc(-c3cc(Cl)c(O)c(Cl)c3)nc2c1N[C@H]1CC[C@H](CN(C)C)CC1
Outline: as §1

ralimetinib = compound: CC(C)(C)Cn1c(N)nc2ccc(-c3[nH]c(C(C)(C)C)nc3-c3ccc(F)cc3)nc21 [ralimetinib]
Outline: as §1

[11] = compound: CC(C)(O)CC(=O)NCCn1ccc2ncnc(Nc3ccc(Oc4cccc(C(F)(F)F)c4)c(Cl)c3)c21
Outline: as §1

[12] = compound: CC(C)C1=C2N=C(C=C(N2N=C1)NCC3=CC=CC=C3)NCCCCCCN
Outline: as §1

[13] = compound: CC(C)C[C@@H](C=O)NC(=O)[C@H](CC(C)C)NC(=O)[C@H](CC(C)C)NC(=O)OCc1ccccc1
Outline: as §1

pinometostat = compound: CC(C)N(C[C@H]1O[C@@H](n2cnc3c(N)ncnc32)[C@H](O)[C@@H]1O)[C@H]1C[C@@H](CCc2nc3cc(C(C)(C)C)ccc3[nH]2)C1 [pinometostat]
Outline: as §1

[14] = compound: CC1=C(C(CC(=O)N1)C2=CC=C(C=C2)C(F)(F)F)C(=O)NC3=C(C=C4C(=C3)C=NN4)F
Outline: as §1

[15] = compound: CC1=C(C2=C(C=C1)C(=O)C3=CC=CC=C3N2CCCN)C
Outline: as §1

Measured: log2 fold change

NDUFA8 (UniProt P51970)
inactive: erlotinib 0 | [1] -0.004 | [2] 0.045 | [3] -0.02 | [4] 0.024 | [5] 0.01 | [6] -0.032 | [7] 0.015 | [8] 0.032 | [9] -0.029 | IRAK-1-4 Inhibitor I -0.001 | ibrutinib 0.008 | [10] 0.013 | ralimetinib -0.076 | [11] -0.009 | [12] -0.109 | [13] -0.061 | pinometostat -0.045 | [14] 0.024 | [15] -0.013

NDUFB5 (UniProt O43674)
inactive: erlotinib 0.071 | [1] -0.007 | [2] 0.042 | [3] -0.042 | [4] 0.006 | [5] 0.038 | [6] -0.017 | [7] -0.015 | [8] 0.026 | [9] 0.006 | IRAK-1-4 Inhibitor I 0.005 | ibrutinib 0.011 | [10] 0.014 | ralimetinib -0.041 | [11] -0.041 | [12] -0.04 | [13] 0.051 | pinometostat -0.018 | [14] -0.003 | [15] -0.013

NCBP1 (UniProt Q09161)
inactive: erlotinib -0.009 | [1] 0.013 | [2] 0.032 | [3] -0.01 | [4] -0.015 | [5] 0.024 | [6] 0.04 | [7] -0.009 | [8] -0.021 | [9] -0.028 | IRAK-1-4 Inhibitor I 0 | ibrutinib -0.002 | [10] 0.017 | ralimetinib -0.014 | [11] -0.042 | [12] -0.003 | [13] -0.028 | pinometostat 0.001 | [14] 0.028 | [15] 0.125

Two successive entries out of the list so far:
NDUFB5 (UniProt O43674)
inactive: erlotinib 0.071 | [1] -0.007 | [2] 0.042 | [3] -0.042 | [4] 0.006 | [5] 0.038 | [6] -0.017 | [7] -0.015 | [8] 0.026 | [9] 0.006 | IRAK-1-4 Inhibitor I 0.005 | ibrutinib 0.011 | [10] 0.014 | ralimetinib -0.041 | [11] -0.041 | [12] -0.04 | [13] 0.051 | pinometostat -0.018 | [14] -0.003 | [15] -0.013

NCBP1 (UniProt Q09161)
inactive: erlotinib -0.009 | [1] 0.013 | [2] 0.032 | [3] -0.01 | [4] -0.015 | [5] 0.024 | [6] 0.04 | [7] -0.009 | [8] -0.021 | [9] -0.028 | IRAK-1-4 Inhibitor I 0 | ibrutinib -0.002 | [10] 0.017 | ralimetinib -0.014 | [11] -0.042 | [12] -0.003 | [13] -0.028 | pinometostat 0.001 | [14] 0.028 | [15] 0.125

Continuation.

NARS1 (UniProt O43776)
inactive: erlotinib 0.005 | [1] -0.046 | [2] 0.01 | [3] 0.009 | [4] -0.032 | [5] 0.02 | [6] -0.008 | [7] 0.019 | [8] 0.01 | [9] 0.013 | IRAK-1-4 Inhibitor I 0.004 | ibrutinib 0.001 | [10] 0.001 | ralimetinib -0.023 | [11] 0.064 | [12] 0.08 | [13] -0.017 | pinometostat -0.025 | [14] 0.009 | [15] 0.013

NDUFAF2 (UniProt Q8N183)
inactive: erlotinib 0.036 | [1] 0.008 | [2] 0.053 | [3] -0.013 | [4] 0.028 | [5] 0.033 | [6] -0.042 | [7] -0.019 | [8] -0.002 | [9] 0.033 | IRAK-1-4 Inhibitor I 0.046 | ibrutinib -0.004 | [10] -0.008 | ralimetinib -0.002 | [11] -0.044 | [12] -0.042 | [13] 0 | pinometostat -0.058 | [14] 0.014 | [15] 0.009

N4BP1 (UniProt O75113)
inactive: erlotinib -0.025 | [1] -0.175 | [2] -0.089 | [3] -0.082 | [4] 0.153 | [5] -0.011 | [6] 0.087 | [7] -0.005 | [8] -0.132 | [9] 0.032 | IRAK-1-4 Inhibitor I -0.055 | ibrutinib -0.048 | [10] 0.015 | ralimetinib 0.151 | [11] 0.094 | [12] -0.352 | [13] -0.087 | pinometostat 0.016 | [14] -0.043 | [15] 0.017

NACA (UniProt E9PAV3)
inactive: erlotinib 0.031 | [1] -0.061 | [2] 0 | [3] 0.001 | [4] 0.006 | [5] 0.011 | [6] -0.008 | [7] -0.006 | [8] 0.028 | [9] 0.068 | IRAK-1-4 Inhibitor I 0.063 | ibrutinib 0.015 | [10] -0.029 | ralimetinib -0.031 | [11] 0.028 | [12] 0.086 | [13] 0.019 | pinometostat -0.03 | [14] 0.014 | [15] -0.042

NAA25 (UniProt Q14CX7)
inactive: erlotinib -0.017 | [1] 0.091 | [2] 0.039 | [3] 0.065 | [4] 0.03 | [5] -0.041 | [6] 0.053 | [7] 0.048 | [8] -0.004 | [9] 0.068 | IRAK-1-4 Inhibitor I -0.019 | ibrutinib 0.027 | [10] -0.076 | ralimetinib -0.001 | [11] -0.033 | [12] -0.05 | [13] -0.015 | pinometostat -0.013 | [14] 0.015 | [15] 0.018

NEFH (UniProt P12036)
inactive: erlotinib -0.011 | [1] -0.087 | [2] -0.375 | [3] -0.004 | [4] -0.166 | [5] 0.093 | [6] -0.151 | [7] -0.09 | [8] 0.006 | [9] -0.127 | IRAK-1-4 Inhibitor I -0.039 | ibrutinib 0.219 | [10] 0.166 | ralimetinib 0.283 | [11] 0.516 | [12] -0.032 | [13] 0.019 | pinometostat 0.25 | [14] 0.129 | [15] -0.187

NDOR1 isoform 2 (UniProt Q9UHB4)
inactive: erlotinib -0.007 | [1] 0.084 | [2] 0.003 | [3] 0.007 | [4] 0.016 | [5] -0.017 | [6] 0.034 | [7] 0 | [8] 0 | [9] 0.006 | IRAK-1-4 Inhibitor I -0.012 | ibrutinib 0.005 | [10] -0.069 | ralimetinib -0.001 | [11] -0.046 | [12] 0.062 | [13] 0.03 | pinometostat -0.048 | [14] -0.061 | [15] -0.012

NDUFV2 (UniProt P19404)
inactive: erlotinib 0.035 | [1] -0.066 | [2] -0.017 | [3] -0.006 | [4] -0.068 | [5] 0.06 | [6] -0.005 | [7] -0.002 | [8] 0.016 | [9] 0.055 | IRAK-1-4 Inhibitor I 0.021 | ibrutinib 0.014 | [10] 0.033 | ralimetinib -0.034 | [11] -0.044 | [12] 0.055 | [13] 0.131 | pinometostat 0.026 | [14] 0.005 | [15] -0.005

NAA15 (UniProt Q9BXJ9)
inactive: erlotinib 0.004 | [1] 0.018 | [2] 0.059 | [3] 0.012 | [4] 0.013 | [5] -0.079 | [6] 0.008 | [7] -0.012 | [8] -0.002 | [9] 0.037 | IRAK-1-4 Inhibitor I 0.017 | ibrutinib -0.004 | [10] -0.054 | ralimetinib -0.054 | [11] -0.01 | [12] -0.003 | [13] -0.045 | pinometostat -0.034 | [14] 0.016 | [15] 0.031

NAXD (UniProt Q8IW45)
inactive: erlotinib 0.017 | [1] 0.024 | [2] 0.062 | [3] 0.022 | [4] -0.102 | [5] -0.011 | [6] -0.01 | [7] 0.02 | [8] -0.068 | [9] 0.076 | IRAK-1-4 Inhibitor I 0.051 | ibrutinib 0.053 | [10] 0.004 | ralimetinib -0.064 | [11] 0.012 | [12] 0.028 | [13] -0.032 | pinometostat -0.044 | [14] 0.004 | [15] -0.072

NAGK isoform 2 (UniProt Q9UJ70)
inactive: erlotinib -0.006 | [1] -0.029 | [2] 0.022 | [3] 0.022 | [4] 0.054 | [5] -0.021 | [6] -0.024 | [7] -0.005 | [8] 0.008 | [9] 0.029 | IRAK-1-4 Inhibitor I 0.042 | ibrutinib 0.005 | [10] -0.002 | ralimetinib -0.026 | [11] 0.061 | [12] 0.045 | [13] -0.003 | pinometostat -0.033 | [14] -0.048 | [15] 0.027

NAP1L5 (UniProt Q96NT1)
inactive: erlotinib -0.054 | [1] -0.007 | [2] 0.004 | [3] 0.04 | [4] -0.05 | [5] 0.068 | [6] -0.062 | [7] -0.048 | [8] -0.015 | [9] 0.084 | IRAK-1-4 Inhibitor I 0.04 | ibrutinib -0.116 | [10] 0.053 | ralimetinib -0.06 | [11] -0.023 | [12] 0.078 | [13] 0.003 | pinometostat -0.115 | [14] 0.02 | [15] -0.16

NAA20 (UniProt P61599)
inactive: erlotinib 0.009 | [1] 0.089 | [2] 0.002 | [3] 0.117 | [4] 0.021 | [5] -0.047 | [6] 0.085 | [7] 0.091 | [8] -0.038 | [9] 0.024 | IRAK-1-4 Inhibitor I 0.014 | ibrutinib 0.03 | [10] -0.099 | ralimetinib -0.024 | [11] 0.016 | [12] -0.022 | [13] 0 | pinometostat -0.043 | [14] -0.013 | [15] 0.021
